Data from paper PMC8233344.
Like-named read-outs stand apart in the source and are kept apart here. Results are given in words; binding and its absence hold for the method and conditions named. In cells and extracts the contact can be indirect. Some entries that bind do so weakly or less than the wild type. For some assays here: Where a sequence is shown, tags or fusion partners need not be part of it.

Amino acid sequences for entries named in this document (tags omitted).
UniProt Q7L0J3: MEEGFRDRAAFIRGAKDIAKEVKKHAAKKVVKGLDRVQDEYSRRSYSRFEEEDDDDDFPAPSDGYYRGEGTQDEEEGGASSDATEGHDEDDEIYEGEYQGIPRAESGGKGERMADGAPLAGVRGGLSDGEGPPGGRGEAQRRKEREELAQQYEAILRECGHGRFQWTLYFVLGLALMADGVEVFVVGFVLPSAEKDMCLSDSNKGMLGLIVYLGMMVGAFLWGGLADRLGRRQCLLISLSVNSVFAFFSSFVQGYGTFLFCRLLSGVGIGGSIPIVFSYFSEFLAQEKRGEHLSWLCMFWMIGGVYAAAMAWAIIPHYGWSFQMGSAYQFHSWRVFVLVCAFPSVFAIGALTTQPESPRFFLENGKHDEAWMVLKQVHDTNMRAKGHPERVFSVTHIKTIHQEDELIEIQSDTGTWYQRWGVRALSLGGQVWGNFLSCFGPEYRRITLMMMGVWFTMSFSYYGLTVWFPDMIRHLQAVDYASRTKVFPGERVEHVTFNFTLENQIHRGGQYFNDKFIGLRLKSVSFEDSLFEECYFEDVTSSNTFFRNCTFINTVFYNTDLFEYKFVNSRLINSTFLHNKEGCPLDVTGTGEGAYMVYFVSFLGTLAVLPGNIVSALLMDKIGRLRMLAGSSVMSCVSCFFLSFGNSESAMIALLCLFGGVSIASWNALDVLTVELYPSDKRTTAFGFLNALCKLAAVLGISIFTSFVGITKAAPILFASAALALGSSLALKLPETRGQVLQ

T1: RFP-C9orf72 (human) (UniProt Q96LT7)
T1 sequence: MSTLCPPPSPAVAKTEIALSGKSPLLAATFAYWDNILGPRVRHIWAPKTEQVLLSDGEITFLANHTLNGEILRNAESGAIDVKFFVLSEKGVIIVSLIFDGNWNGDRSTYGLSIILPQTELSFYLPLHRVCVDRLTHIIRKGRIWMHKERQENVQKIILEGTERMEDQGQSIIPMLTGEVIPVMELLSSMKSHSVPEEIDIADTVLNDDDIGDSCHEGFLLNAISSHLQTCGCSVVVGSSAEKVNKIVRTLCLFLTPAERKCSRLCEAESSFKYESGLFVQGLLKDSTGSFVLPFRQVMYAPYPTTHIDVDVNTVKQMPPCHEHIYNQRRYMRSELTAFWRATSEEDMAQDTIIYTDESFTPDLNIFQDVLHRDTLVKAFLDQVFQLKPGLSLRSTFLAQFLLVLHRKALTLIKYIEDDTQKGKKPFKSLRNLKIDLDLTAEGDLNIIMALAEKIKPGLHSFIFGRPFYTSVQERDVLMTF

B1: Myc-SMCR8 (protein, UniProt Q8TEV9 1-937)
chain: MISAPDVVAFTKEEEYEEEPYNEPALPEEYSVPLFPFASQGANPWSKLSGAKFSRDFILISEFSEQVGPQPLLTIPNDTKVFGTFDLNYFSLRIMSVDYQASFVGHPPGSAYPKLNFVEDSKVVLGDSKEGAFAYVHHLTLYDLEARGFVRPFCMAYISADQHKIMQQFQELSAEFSRASECLKTGNRKAFAGELEKKLKDLDYTRTVLHTETEIQKKANDKGFYSSQAIEKANELASVEKSIIEHQDLLKQIRSYPHRKLKGHDLCPGEMEHIQDQASQASTTSNPDESADTDLYTCRPAYTPKLIKAKSTKCFDKKLKTLEELCDTEYFTQTLAQLSHIEHMFRGDLCYLLTSQIDRALLKQQHITNFLFEDFVEVDDRMVEKQESIPSKPSQDRPPSSSLEECPIPKVLISVGSYKSSVESVLIKMEQELGDEEYKEVEVTELSSFDPQENLDYLDMDMKGSISSGESIEVLGTEKSTSVLSKSDSQASLTVPLSPQVVRSKAVSHRTISEDSIEVLSTCPSEALIPDDFKASYPSAINEEESYPDGNEGAIRFQASISPPELGETEEGSIENTPSQIDSSCCIGKESDGQLVLPSTPAHTHSDEDGVVSSPPQRHRQKDQGFRVDFSVENANPSSRDNSCEGFPAYELDPSHLLASRDISKTSLDNYSDTTSYVSSVASTSSDRIPSAYPAGLSSDRHKKRAGQNALKFIRQYPFAHPAIYSLLSGRTLVVLGEDEAIVRKLVTALAIFVPSYGCYAKPVKHWASSPLHIMDFQKWKLIGLQRVASPAGAGTLHALSRYSRYTSILDLDNKTLRCPLYRGTLVPRLADHRTQIKRGSTYYLHVQSMLTQLCSKAFLYTFCHHLHLPTHDKETEELVASRQMSFLKLTLGLVNEDVRVVQYLAELLKLHYMQESPGTSHPMLRFDYVPSFLYKI

How the values were obtained:
RFP-C9orf72 (human) [1] = target: T1, RFP-C9orf72 (human); test: co-IP; HEK293T cells co-transfected with RFP-C9orf72 or RFP and Myc-SMCR8 or Myc-SV2a; RIPA lysate incubated 2 h with RFP-Trap agarose beads, rinsed 5 times with RIPA; immunoblot with anti-Myc and anti-C9orf72
RFP-C9orf72 (human) [2] = target: T1, RFP-C9orf72 (human); test: as above; remark: listed apart in the source

Row | Molecule | binding (RFP-C9orf72 (human) [1]) | binding (RFP-C9orf72 (human) [2])
1 | Myc-SV2a (from UniProt Q7L0J3 1-742) | binds | –
2 | B1 | – | binds
